{
  "sequences": {"note": "Protein sequences, listed by entry. Tags and fused reporters are not part of them.", "UniProt Q9HCE7": "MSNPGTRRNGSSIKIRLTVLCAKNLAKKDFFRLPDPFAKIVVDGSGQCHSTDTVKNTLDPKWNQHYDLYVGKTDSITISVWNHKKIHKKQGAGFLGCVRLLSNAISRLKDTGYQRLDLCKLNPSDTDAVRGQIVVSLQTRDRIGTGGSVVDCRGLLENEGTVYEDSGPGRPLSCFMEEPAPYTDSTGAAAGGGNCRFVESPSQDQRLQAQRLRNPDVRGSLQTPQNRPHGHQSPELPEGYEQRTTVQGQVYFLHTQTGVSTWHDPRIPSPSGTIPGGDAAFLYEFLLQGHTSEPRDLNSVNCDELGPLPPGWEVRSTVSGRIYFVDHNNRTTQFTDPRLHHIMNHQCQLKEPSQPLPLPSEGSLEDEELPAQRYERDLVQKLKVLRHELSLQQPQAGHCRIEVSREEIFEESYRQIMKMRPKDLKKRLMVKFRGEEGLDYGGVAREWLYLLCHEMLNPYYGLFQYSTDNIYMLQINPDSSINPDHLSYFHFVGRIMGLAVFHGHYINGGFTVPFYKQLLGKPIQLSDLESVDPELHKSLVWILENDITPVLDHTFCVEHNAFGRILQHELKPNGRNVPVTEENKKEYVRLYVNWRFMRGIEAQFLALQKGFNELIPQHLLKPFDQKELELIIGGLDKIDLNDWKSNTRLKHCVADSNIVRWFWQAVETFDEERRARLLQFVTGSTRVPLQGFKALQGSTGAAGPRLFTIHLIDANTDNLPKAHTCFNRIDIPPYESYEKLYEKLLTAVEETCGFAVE", "UniProt P46934": "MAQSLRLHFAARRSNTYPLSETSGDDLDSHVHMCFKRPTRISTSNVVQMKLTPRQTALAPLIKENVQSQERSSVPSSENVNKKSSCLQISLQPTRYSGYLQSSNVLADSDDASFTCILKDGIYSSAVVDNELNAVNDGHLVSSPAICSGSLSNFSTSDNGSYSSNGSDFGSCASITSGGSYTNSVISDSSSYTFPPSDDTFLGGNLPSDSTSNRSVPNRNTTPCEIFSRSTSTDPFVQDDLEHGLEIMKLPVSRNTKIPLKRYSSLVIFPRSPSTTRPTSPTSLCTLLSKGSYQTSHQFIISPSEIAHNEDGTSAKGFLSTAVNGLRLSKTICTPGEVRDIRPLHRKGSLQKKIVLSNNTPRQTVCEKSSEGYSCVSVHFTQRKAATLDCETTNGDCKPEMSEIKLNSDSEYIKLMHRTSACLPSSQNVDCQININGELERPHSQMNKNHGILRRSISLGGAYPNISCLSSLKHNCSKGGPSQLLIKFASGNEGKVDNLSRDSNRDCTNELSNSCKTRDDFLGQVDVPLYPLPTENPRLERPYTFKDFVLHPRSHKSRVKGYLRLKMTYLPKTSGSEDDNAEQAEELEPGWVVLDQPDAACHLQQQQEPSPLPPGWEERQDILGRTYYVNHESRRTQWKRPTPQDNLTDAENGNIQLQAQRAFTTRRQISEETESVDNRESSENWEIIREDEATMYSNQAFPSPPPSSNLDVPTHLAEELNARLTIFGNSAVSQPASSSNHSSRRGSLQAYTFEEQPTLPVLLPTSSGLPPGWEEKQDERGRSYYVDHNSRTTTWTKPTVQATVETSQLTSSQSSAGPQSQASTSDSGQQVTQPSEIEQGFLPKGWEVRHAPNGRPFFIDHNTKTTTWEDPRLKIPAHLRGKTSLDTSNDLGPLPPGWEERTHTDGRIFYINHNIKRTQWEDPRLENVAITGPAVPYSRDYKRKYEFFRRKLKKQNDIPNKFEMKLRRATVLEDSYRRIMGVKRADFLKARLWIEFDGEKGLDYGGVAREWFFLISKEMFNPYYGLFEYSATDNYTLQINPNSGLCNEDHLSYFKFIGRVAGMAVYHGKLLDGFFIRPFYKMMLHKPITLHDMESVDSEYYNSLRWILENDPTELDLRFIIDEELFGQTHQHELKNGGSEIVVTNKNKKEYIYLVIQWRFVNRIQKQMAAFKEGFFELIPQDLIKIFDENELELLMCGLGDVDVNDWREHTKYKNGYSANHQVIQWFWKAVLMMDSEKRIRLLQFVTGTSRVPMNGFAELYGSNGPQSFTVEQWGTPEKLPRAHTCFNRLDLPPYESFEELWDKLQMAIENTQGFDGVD"},
  "source": "paper PMC8055679",
  "key": {"[1]": {"target": "Human epidermal growth factor receptor 2 (HER2/ErbB2) (human (endogenous in BT474 and SKBR3)) (UniProt P04626)", "test": "co-IP; endogenous proteins in BT474 and SKBR3 cell lysates (500 ug total protein); IP with anti-NEDD4, anti-SMURF1 or anti-HER2 antibody and protein A/G Plus-Agarose at 4 C, control IgG, western blot; for Fig. 3f cells pretreated with MG132 (10 uM) for 6 h"}, "[2]": {"target": "SMURF1 (human (endogenous in BT474 and SKBR3)) (UniProt Q9HCE7)", "test": "co-IP; endogenous proteins in BT474 and SKBR3 cell lysates (500 ug total protein); IP with anti-NEDD4, anti-SMURF1 or anti-HER2 antibody and protein A/G Plus-Agarose at 4 C, control IgG, western blot; for Fig. 3f cells pretreated with MG132 (10 uM) for 6 h"}},
  "note": "These are yes or no findings as the source states them, for the method shown. Binding seen in cells or lysates may run through a third protein. Some entries that bind do so weakly or less than the wild type.",
  "data": [
    {"substance": "NEDD4 (from UniProt P46934 1-1319) (enzyme)", "values": [
      {"measurement": "binding", "setting": "[1]", "value": "no binding"},
      {"measurement": "binding", "setting": "[2]", "value": "binds"}
    ]},
    {"substance": "SMURF1 (from UniProt Q9HCE7 1-757) (enzyme)", "values": [
      {"measurement": "binding", "setting": "[1]", "value": "binds"}
    ]}
  ]
}
